Whole data set: some 33,000 sequences, median “E-score (-0.5 to 0.5)” near -0.0014, cut for the highest 2% near 0.25. This is one part of the list.
Biological target: T1, Cad1 (UniProt P24813)
T1 sequence: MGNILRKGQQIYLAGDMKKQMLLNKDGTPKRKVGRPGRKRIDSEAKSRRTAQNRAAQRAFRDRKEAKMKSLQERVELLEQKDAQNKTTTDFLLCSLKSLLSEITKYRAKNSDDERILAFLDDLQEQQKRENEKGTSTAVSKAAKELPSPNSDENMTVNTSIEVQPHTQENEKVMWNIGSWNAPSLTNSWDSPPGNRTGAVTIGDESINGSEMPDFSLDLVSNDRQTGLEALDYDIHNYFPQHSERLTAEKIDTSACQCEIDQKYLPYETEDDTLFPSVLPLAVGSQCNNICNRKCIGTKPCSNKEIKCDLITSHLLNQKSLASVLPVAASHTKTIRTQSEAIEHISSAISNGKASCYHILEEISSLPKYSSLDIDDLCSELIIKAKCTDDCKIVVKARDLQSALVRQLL
Assay: PBM E-score (8-mer binding enrichment) (E-score (-0.5 to 0.5)); higher = stronger / more preferred TF binding
Details: protein concentration: 100 nM; construct: GST-full length
Experimental: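 Universal 'all 10-mer' protein binding microarrays (Agilent AMADID 015681) probed with GST-tagged S. cerevisiae TFs (full-length or DBD) made by in vitro transcription/translation (PURExpress), about 100-200 nM. Bound TF was detected with fluorescent anti-GST. Each ungapped 8-mer (which stands for itself and its reverse complement) is scored by the PBM enrichment score (E-score), a modified Wilcoxon-Mann-Whitney statistic from -0.5 to +0.5, computed with the Universal PBM Analysis Suite. Scale: above 0.35 generally sequence-specific binding.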

Sequence | PBM E-score
GGAATAAC | 0.203
ATGTGGAA | 0.12
CCTCTTAG | 0.191
CTGGTTAA | -0.0885
TACATGGA | -0.135
AAATGTTG | -0.205
AGAATGCT | 0.0001
GAAAAGTC | 0.0311
AAGAGAGG | -0.173
ATTATTGA | -0.00523
ATGAAACG | 0.0529
GAGCCTAC | -0.185
CCCCGTAA | -0.128
CCAGCCAC | -0.0707
ACTTTAGG | -0.214
AAATCGAT | 0.246
GTCGGGCA | -0.0909
ACCTAGAG | -0.181
AGTAGTTC | 0.0997
CACAGGAC | -0.0449
CAAGCGCC | -0.119
AGGGTTGC | -0.0156
ACCGGAAC | 0.147
ACCCGTTG | -0.222
AGACGTTG | -0.0385

A second format for part of the listing above:
Sequence	PBM E-score
ACCGGAAC	0.147
ACCCGTTG	-0.222

(continued)

Sequence | PBM E-score
GACTCCGC | -0.135
CCTCTCAG | -0.235
GGCGCTAA | -0.0255
CTTTGCAA | 0.0374
CATCCAAA | -0.0398
TAGGACCA | -0.154
CGTGCGAC | -0.17
CTCAATGA | -0.0762
CCCCGTAG | -0.199
GGTTCTCA | 0.0117
CACTTCGG | -0.0116
AGTGGCAG | -0.0234
ATTATATG | 0.211
CCTCACGA | -0.294
TGCGAAAA | 0.266
TAACATTA | 0.14
AGCAAAGC | -0.0684
ACCTACCC | -0.0797
ATCTCACA | -0.0434
CCAATATC | 0.158
ATAATTCC | -0.00553
GTCCGGGA | 0.135
TCGTGCAA | 0.232
CGCATGAC | 0.0849
CCTCTCTC | -0.208

Sequence | PBM E-score
AGTGTCTG | 0.15
ACTGATGC | -0.0988
CATAATCA | 0.175
CCGGCTTC | -0.015
GAGGGTGC | -0.226
AAGTTGAT | 0.0664
AAGCTTCG | -0.0845
ACTTATTC | 0.0846
ACCCGGTC | -0.162
GACTTAAC | -0.135
ACTCAAAT | 0.108
ACAACAAC | 0.138
ACGCTGTG | 0.159
ATATGATA | 0.285
AAATTCCA | 0.308
GCACGGCA | 0.144
TCAGAGCA | -0.14
GGGAGGTA | -0.14
ATAATATA | 0.227
ATCACGTG | 0.159
CGCTCCAG | -0.174
GAGTGCGC | -0.0123
AATTAATA | 0.432
CAACTTAC | -0.0836
AGACACCC | -0.151

Sequence | PBM E-score
AATCAAGC | -0.0596
AGCCGCTA | -0.0301
CATCAGGA | 0.139
AGGTGTCG | -0.00801
CTGGCCCA | -0.201
ACAGCCGA | -0.225
AACGGAAT | 0.269
AGCCTTTG | -0.253
CGAGCACA | 0.109
CGCGCTAA | 0.256
GAATGTAA | 0.152
AAACATTC | -0.177
GGCGGATA | 0.0172
AGATTAGG | -0.0256
CGTGCGTA | -0.05
GCCAACCA | -0.116
AGCCGGAA | 0.21
ATTCCAAC | 0.0684
GCCCGGCC | -0.259
ACGTAGCA | -0.00472
AAGGTTAA | -0.00282
CGACGACC | -0.0879
CGCCTTCC | -0.236
AGGGGGCC | -0.393
CCACATTC | -0.065

Reprinted at random: seven records from the list, in no set order.
Sequence | PBM E-score
CTGGTTAA | -0.0885
GACTTAAC | -0.135
CGCATGAC | 0.0849
AGCAAAGC | -0.0684
AAGCTTCG | -0.0845
CATCCAAA | -0.0398
ACTCAAAT | 0.108

(further entries)

Sequence | PBM E-score
GCAGATCC | -0.00886
TGACCTAA | 0.115
AGGTGACT | 0.00699
CTTTCCGC | 0.107
CATTAGCA | 0.0321
ATGGGCGG | -0.0566
AATAATTA | 0.336
AAGTATGG | 0.00171
ATTAGTAC | 0.071
ATCCTGTG | -0.127
GATAGACA | -0.0074
CCAGTCGG | -0.238
AGCGTTTC | -0.185
CCCAATAG | -0.0892
GGTAGGTA | -0.0804
GCGTCCGA | 0.082
CTAAGATC | 0.0614
AGGAGTGC | -0.0841
GAAACCTC | 0.00876
AGATGAGG | -0.163
CCCTCAAC | -0.181
CGATATCG | 0.241
CAGGTAAC | -0.0537
CGTATCTA | 0.00454
ACAGAAAC | 0.116

Sequence | PBM E-score
AATGCCCT | -0.245
ATCTGACA | -0.0553
AGCTCTCG | -0.227
CCATGTAG | -0.0546
CTAGAAAC | -0.0974
GGTGCCGA | 0.0678
TGATCGCA | -0.112
ACGGTCGG | -0.0507
AAGAAAGA | -0.0162
CGGTAATA | 0.121
AGGAGGCC | -0.27
CTCGGGTC | -0.033
GAATATAA | 0.0963
ATAGCTTC | -0.0987
GATACTAC | 0.2
CCCAAAGC | -0.13
AAGCCATT | 0.0852
AACTATTG | 0.134
TTACGAAA | 0.232
AGTAACCC | 0.0776
AGTAGGCA | 0.103
ACGACTCG | -0.0779
TCACGACA | 0.0406
CCTCTCCG | -0.213
AGTGACAA | -0.0134

Sequence | PBM E-score
CAAGACTC | -0.0201
CCGGTCAA | 0.132
CGGCACCC | -0.216
CATCGCGA | 0.25
CGACGTGA | 0.0584
ATCTCAAG | 0.00391
AGGCTTGA | -0.0249
GGAGGAAC | -0.13
CGGTCAAA | 0.176
ATAAGGCG | 0.0694
AGCTCAAA | 0.0829
ACTTGAAT | 0.107
ACCAGCCG | 0.0467
CGTAGTCA | -0.127
TACAGAAA | 0.217
CGACCTCC | -0.077
CAGGTGGC | -0.183
ATAGTTGC | 0.0667
CCTCAGTA | -0.198
AATCATTA | 0.0402
CCAGTTCA | 0.0422
GAGGATAC | -0.156
GATCGGGA | -0.142
CTAAATAG | 0.09
AGTCAATG | -0.101

Sequence | PBM E-score
CGTAGTAC | -0.00804
AGGGGAAG | -0.282
CCTGTGTC | -0.273
CTGCATCA | 0.0963
CCGCTCAA | -0.0655
GCCTCCGA | -0.0456
ATCAGCGC | 0.176
AGACACTG | 0.0602
ATATACAC | 0.0284
AACAACGG | 0.141
AAAGGGGT | -0.314
CCTACTTC | 0.00524
GGGATCGA | -0.115
CGCACCAA | 0.0184
ACGAATTC | 0.115
ACCGTACC | -0.125
GTACCGAA | 0.00935
AGCTGGGG | -0.178
CAGCCCCC | -0.313
CTGGGAGA | -0.0838
ATATGGAG | 0.157
GATCCCGA | 0.0683
CCCCCGGC | -0.372
CACGGCTG | -0.184
GTCCATCA | -0.0278

Sequence | PBM E-score
GTAAGGCA | -0.0345
AGGTCCCG | -0.0309
ACCCCCTC | -0.442
CCATGGTC | -0.152
GACAACTC | 0.0803
ATGGCGAA | 0.179
ATGCAGAG | -0.0748
GGCTGAGA | 0.00306
AAAAACAA | 0.181
CGTCCTCA | -0.116
CTAAGAAA | 0.0882
ACTACCCT | -0.163
ACCCTTAA | -0.218
AGCTGCAC | -0.0122
GACTCCAC | -0.332
ACTCTTTG | -0.207
CCAACCAC | 0.189
AACTCACA | 0.115
TCGGGCCA | -0.0388

From the supplement of paper PMC3334620
